Laboratory results: patent US20240108662A1, “ENGINEERED CELLS FUNCTIONALIZED WITH IMMUNE CHECKPOINT MOLECULES AND USES THEREOF” (The University of North Carolina at Chapel Hill, priority 2020, published 2024)

B1: Q3UN02 (protein, UniProt Q3UN02 1-376, looked up)
chain: MVSWKGIYFILFLFAGSFFGSIFMLGPILPLMFINLSWYRWISSRLVATWLTLPVALLETMFGVRVVITGDAFVPGERSVIIMNHRTRVDWMFLWNCLMRYSYLRVEKICLKSSLKSVPGFGWAMQVAAFIFIHRKWKDDKSHFEDMIDYFCAIHEPLQLLIFPEGTDLTENNKARSNDFAEKNGLQKYEYVLHPRTTGFTFVVDRLREGKNLDAVHDITVAYPYNIPQTEKHLLLGDFPKEIHFHVQRYPADSLPTSKEDLQLWCHRRWEEKEERLRSFYQGEKNFHFTGQSTVPPCKSELRVLVVKLLSIVYWALFCSAMCLLIYLYSPVRWYFIISIVFFVLQERIFGGLEIIELACYRFLHKHPHLNSKKNE
modifications: full-length
B2: Q9WVC3 (protein, UniProt Q9WVC3 1-162, looked up)
chain: MGLETEKADVQLFMADDAYSHHSGVDYADPEKYVDSSHDRDPHQLNSHLKLGFEDLIAEPETTHSFDKVWICSHALFEISKYVMYKFLTVFLAIPLAFIAGILFATLSCLHIWILMPFVKTCLMVLPSVQTIWKSVTDVVIGPLCTSVGRSFSSVSMQLSHD
modifications: full-length
B3: Q9DBS1 (protein, UniProt Q9DBS1 1-400, looked up)
chain: MAANYSSTSSRKEHVKVTSEPQPGFLERLSETSGGMFVGLMTFLLSFYLIFTNEGRALKTATSLAEGLSLVVSPDSIHSVAPENEGRLVHIIGALRTSKLLSDPNYGVHLPAVKLRRHVEMYQWVETEESSEYTEDGQVKKETKYSYNTEWRSEIVNSRNFDREIGHKNPSAMAVESFTATAPFVQIGRFFLSAGLIDKIDNFKALSLAKLEDPHVDIIRRGDFFYHSENPKYPEVGDVRVSFSYAGLSSDDPDLGPAHVVTVIARQRGDQLIPYSTKSGDTLLLLHHGDFSAEEVFRREQKSNSMKTWGLRAAGWMAMFMGLNLMTRILYTLVDWFPVFRDLVNIGLKAFAFCVATSLTLLTVAAGWLFYRPLWAALIGCLALVPIIIARTRVPAKKLE
modifications: full-length
B4: Q6P5B0 (protein, UniProt Q6P5B0 1-1295, looked up)
chain: MGRSGKLPSGVSAKLKRWKKGHSSDSNPATCRHRQAARSRFFSRPSGKSDLTVDAVKLHNELQSGTLSLGKSQAPETTMDQDPEVAFTEKSSGTFLSGLSDCTNVTFSKVQRFWESNSAAHKEICAVLAAVTEVIRSQGGKETETEYFAALMTTMEAVESPESLAAVAYLLNLVLKRVPSPVLMKKFSDTSKAFMDIMSAQASSGSTSALRWVLSCLAILLRKQDLEAWGYPITLQVYHGLLSFTVHAKPKIRKAAQHGVCSVLKGSDFMFGEKAPAHHPAAVSTAKFCIQEIEKSGGSKEATTTLHMLTLLKDMLPCFPEGLVKSCSETLLRVMTLNHVLVTACAMQAFHNLFHAKPSPSTLSAELNAQIVTALYDYVPSENDLQPLLAWLKVMEKAHINLVRLQRDLGLGHLARFFGTAVTCLLSPHSQVAAAATQTLKEILKECVAPHIADIGSVTSSASGPPQYITKMFRAVEEGLTYKFHAAWSSVLQLLGVFFEACGKQAHPVMKKCLQSLCDLRLSPHFPHTAALDQAVGAAVTSMGPEVVLQAVPLEIDGSEETLDFPRSWLLPVIRDHVRETRLGFFTTYFLPLATTLKRKAMDLAQAGSTVESKIYDTLQWQIWTLLPGFCTRPTDVAASFKGLARTLGTAINERPDLRVTVCQALRTLITKGCEAEADRAEVSRFAKNFLPILFNLYGQPVAAGEAAAPRRAVLETIKTYLTITEAQLVNSFLEKATEKVLDPASSDFTRLSVLDLVVALAPYSDEAAISKLYSTIRPYLESKVHGVQKKAYRVLEEVCASSQGPAARFVQSHLDDLKKTLLDSLRTTSSPAKRPRLKCLIHIVKTLSAEHEEFIAALIPEVILCTKEVSVGARKSAFTLLVEMGHAFLRFGSNQEDALQRYLVLIYPGLLGAVTTVSCSILALTHLLFEFKGLMGTSTVEQLLENVCLLLASRTRDVVKSALGFIKVAVVVMDVVHLAKHVQLVMEAIGKLSDDMRRHFRMKLRNLFIKFTRKFGFELVKGLLPAEYHKVLINIRKAETRAKKHRALSQAAVEEEEEEEEEEEPVQSKGDSIEEILADSEDEDEEEERGRGKEQRKLARQRSRAWLKEGGGDEPLNFLDPKVAHRVLATQPGPGRGKKRDHGFKLSADGRLIIREEEDGNKVEEEDGTKGEDEDMTDAMEDASVRSKKKLKRQREDEEDELEIPPRYQAGGSGIHRPVAKKAAPGAEYKAKKAKGDVKKKGRLDPYAYVPLNRSKLNRRKKVKLQGQFKGLVKATQRGSQAGHKLRRKDRRRP
modifications: full-length
B5: P20918 (protein, UniProt P20918 1-812, looked up)
chain: MDHKEVILLFLLLLKPGQGDSLDGYISTQGASLFSLTKKQLAAGGVSDCLAKCEGETDFVCRSFQYHSKEQQCVIMAENSKTSSIIRMRDVILFEKRVYLSECKTGIGNGYRGTMSRTKSGVACQKWGATFPHVPNYSPSTHPNEGLEENYCRNPDNDEQGPWCYTTDPDKRYDYCNIPECEEECMYCSGEKYEGKISKTMSGLDCQAWDSQSPHAHGYIPAKFPSKNLKMNYCRNPDGEPRPWCFTTDPTKRWEYCDIPRCTTPPPPPSPTYQCLKGRGENYRGTVSVTVSGKTCQRWSEQTPHRHNRTPENFPCKNLEENYCRNPDGETAPWCYTTDSQLRWEYCEIPSCESSASPDQSDSSVPPEEQTPVVQECYQSDGQSYRGTSSTTITGKKCQSWAAMFPHRHSKTPENFPDAGLEMNYCRNPDGDKGPWCYTTDPSVRWEYCNLKRCSETGGSVVELPTVSQEPSGPSDSETDCMYGNGKDYRGKTAVTAAGTPCQGWAAQEPHRHSIFTPQTNPRAGLEKNYCRNPDGDVNGPWCYTTNPRKLYDYCDIPLCASASSFECGKPQVEPKKCPGRVVGGCVANPHSWPWQISLRTRFTGQHFCGGTLIAPEWVLTAAHCLEKSSRPEFYKVILGAHEEYIRGLDVQEISVAKLILEPNNRDIALLKLSRPATITDKVIPACLPSPNYMVADRTICYITGWGETQGTFGAGRLKEAQLPVIENKVCNRVEYLNNRVKSTELCAGQLAGGVDSCQGDSGGPLVCFEKDKYILQGVTSWGLGCARPNKPGVYVRVSRFVDWIEREMRNN
modifications: full-length
B6: Q8K224 (protein, UniProt Q8K224 1-1024, looked up)
chain: MNRKKVDNRIRILIENGVAERQRSLFVVVGDRGKDQVVILHHMLSKATVKARPSVLWCYKKELGFSSHRKKRMRQLQKKIKSGTLNLKQDDPFELFVAATNIRYCYYNETHKILGNTFGMCVLQDFEALTPNLLARTVETVEGGGLVVILLRTMNSLKQLYTMTMDVHSRYRTEAHQDVVGRFNERFILSLASCKKCLVIDDQLDILPISSHVASIEALPPQAPDENLSPAALELLELKESLQDTQPVGVLVDCCKTLDQAKAVLKFIEGISEKTLRSTVALTAARGRGKSAALGLAIAGAVAFGYSNIFVTSPSPDNLHTLFEFVFKGFDALQYQEHLDYEIVQSLNPEFNKAVIRVNVFREHRQTIQYIHPADAVKLGQAELVVIDEAAAIPLPLVKSLLGPYLVFMASTINGYEGTGRSLSLKLIQQLRQQSAQSQVSTTAENKTTTTARLASARTLHEVSLQESIRYAPGDAVEKWLNDLLCLDCLNITRIVSGCPLPEACELYYVNRDTLFCYHKASEVFLQRLMALYVASHYKNSPNDLQMLSDAPAHHLFCLLPPVPPTQNALPEVLAVVQVCLEGEISRQSILNSLSRGKKASGDLIPWTVSEQFQDPDFGGLSGGRVVRIAVHPDYQGMGYGSRALQLLQMYYEGKFPCLEEKVLETPQEIRTVSSEAVSLLEEVITPRKDLPPLLLKLNERPAERLDYLGVSYGLTPRLLKFWKRAGFVPVYLRQTPNDLTGEHSCIMLKTLADEDEAEQGAWLAAFWKDFRRRFLALLSYQFSTFSPALSLNIIQNRNVAKSALPALGREHLEALFLPYDLKRLEMYSRNMVDYHLIMDLIPAISRLYFLNQLGDLSLSAAQSALLLGIGLQHKSVDQLEKEIELPSGQLMGLFNRIIRKVVKLFNDVQEKAIEEQMVAVKDVVMEPTMKTLSDDLDEAAKEFQEKHKKEVGKLKDMDLSQYVIRGDDEEWNEVLSKAGQNASIVSLKSDKKRKLETKQEPKQSKKLKKRDNNRKDMKLKRKK
modifications: full-length
B7: Q9JJ80 (protein, UniProt Q9JJ80 1-306, looked up)
chain: MDALDKVLKPKTKRAKRFLEKREPKLTENIKNAMLIKGGNANATVTQVLRDMYALKKPYGVLYKKKNITRPFEDQTSLEFFSKKSDCSLFMFGSHNKKRPNNLVIGRMYDYHVLDMIELGIEKFVSLKDIKTSKCPEGTKPMLIFAGDDFDVTEDFRRLKNLLIDFFRGPTVSNVRLAGLEYVLHFTALNGKVYFRSYKLLLKKSGCRTPRIELEEMGPSLDLVMRRTHLASDDLYKLSMKVPKALKPKKRKNISQDTFGTTFGRIHMQKQDLSKLQTRKMKGLKKRPAENGVDDQGKKSKRIKKN
modifications: full-length
B8: Q9Z0R9 (protein, UniProt Q9Z0R9 1-444, looked up)
chain: MGKGGNQGEGSTERQAPMPTFRWEEIQKHNLRTDRWLVIDRKVYNVTKWSQRHPGGHRVIGHYSGEDATDAFRAFHLDLDFVGKFLKPLLIGELAPEEPSLDRGKSSQITEDFRALKKTAEDMNLFKTNHLFFFLLLSHIIVMESLAWFILSYFGTGWIPTLVTAFVLATSQAQAGWLQHDYGHLSVYKKSIWNHVVHKFVIGHLKGASANWWNHRHFQHHAKPNIFHKDPDIKSLHVFVLGEWQPLEYGKKKLKYLPYNHQHEYFFLIGPPLLIPMYFQYQIIMTMISRRDWVDLAWAISYYMRFFYTYIPFYGILGALVFLNFIRFLESHWFVWVTQMNHLVMEIDLDHYRDWFSSQLAATCNVEQSFFNDWFSGHLNFQIEHHLFPTMPRHNLHKIAPLVKSLCAKHGIEYQEKPLLRALIDIVSSLKKSGELWLDAYLHK
modifications: full-length

Assay: Proteomic analysis of native murine pancreata and decelled pancreatic ECM (Table 1)
Parameters: species or system mouse
Conditions: for Pancreatic ECM: Mean of log2(intensities): abundance of the listed protein in decelled pancreatic ECM; for Native pancreas tissue: Mean of log2(intensities): abundance of the listed protein in native murine pancreas tissue

Molecule	Pancreatic ECM: Mean of log2(intensities) [a.u.]	Native pancreas tissue: Mean of log2(intensities) [a.u.]
B1	26.12	21.97
B2	25.62	21.09
B3	27.14	22.45
B4	26.17	21.32
B5	26.25	21.76
B6	25.63	21.07
B7	26.78	22.28
B8	25.70	21.09
